The other results are listed elsewhere or left out.

Chains of the proteins cited; added tags and fusions are not shown.
UniProt Q0JBA9, entry or part of it: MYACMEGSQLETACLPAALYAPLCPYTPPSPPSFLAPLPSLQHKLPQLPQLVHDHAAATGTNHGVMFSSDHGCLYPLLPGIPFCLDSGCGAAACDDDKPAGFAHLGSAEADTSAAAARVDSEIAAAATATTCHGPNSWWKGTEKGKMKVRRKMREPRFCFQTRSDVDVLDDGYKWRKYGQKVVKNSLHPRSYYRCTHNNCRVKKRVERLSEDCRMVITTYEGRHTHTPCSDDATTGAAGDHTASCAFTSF

The target of the assay is OsWRKY34 (Oryza sativa, UniProt Q0JBA9 1-250). Kind of assay: protein-binding microarray (RPBM); PBS, 2% BSA, 51.3 ng/ul salmon testes DNA, 50 uM zinc acetate, 200 nM TF, 25 C, 1 h; high values mean tight binding. As to conditions: protein: recombinant; tags: N-terminal polyhistidine and DsRed monomer fusion (pET32a); label: CyDye5-dUTP incorporated in the synthesized complementary strand; 3' TTTTT single-stranded linker to array surface; dsDNA, one strand shown. A digest of the protocol: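 Using Ni–NTA, transcription factors fused N-terminally to polyhistidine and DsRed were purified after expression in E. coli BL21-CodonPlus. These were incubated at 200 nM with a blocked, double-stranded custom Agilent array for 1 h at 25 °C in a buffer containing 50 µM zinc acetate, and the array was washed. The binding signal is per-feature fluorescence intensity (arbitrary units) on an Axon 4000B scanner.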
For the sequence “CTGTCATTTCAGTTCTCTGTAGATTTTCGTGGGAGGCAATCGGAGTCACCTAGTGCAG”, the binding signal is 8180 fluorescence intensity (a.u.).

“ATCCCCACACGTGGGACCCACGTGAGGCCCACGCTGACTCCGGAGTCACCTAGTGCAG”: the binding signal is 9690 fluorescence intensity (a.u.).

On to “GCATATCAGCATCTCCATCGCCATCGGCTGCAGTTTTTCCCGGAGTCACCTAGTGCAG”, for which the binding signal was 9080 fluorescence intensity (a.u.).

In the case of “CCCTCCCCGTCGCCGTCACTCTCGCTCTCGCGCTCCCAGCCGGAGTCACCTAGTGCAG”, the binding signal is 8210 fluorescence intensity (a.u.).

With “GGCAATTATAGTCAACTTTATCCGTTAGAGAGACATTCATCGGAGTCACCTAGTGCAG”, the binding signal is 9500 fluorescence intensity (a.u.).

For “CCCTGCACGCATCCTCTCCGCCATTTTTCCGCCGCATCTGCGGAGTCACCTAGTGCAG”, the binding signal is 14700 fluorescence intensity (a.u.).

For the sequence “CCATTTATAGGCATCATATACTGACCAAACCACACTCCGACGGAGTCACCTAGTGCAG”, the binding signal was 8640 fluorescence intensity (a.u.).

In the case of “GACTGGGAGGATGAGGGGTGGGTGGGTGTGGCTGCTTCTGCGGAGTCACCTAGTGCAG”, the binding signal was 19100 fluorescence intensity (a.u.).

As to “TTGGGGCGTGGGCGGTGGCGTGTTCAAGGCGGGGAGCTACCGGAGTCACCTAGTGCAG”, the binding signal was 11600 fluorescence intensity (a.u.).

In the case of “CGTATCGCGCGTGATCTCTCGTCGTCAACCGCTGCTTGCTCGGAGTCACCTAGTGCAG”, the binding signal was 8700 fluorescence intensity (a.u.).

Regarding “TTATAATACTGTATTCTTTCACACATCACCTTTTATCTCACGGAGTCACCTAGTGCAG”, the binding signal is 8360 fluorescence intensity (a.u.).

As for “CTTTCCCCGCGCCATCGATCCACGCCATTATATAGCTGTCCGGAGTCACCTAGTGCAG”, the binding signal is 10800 fluorescence intensity (a.u.).

Regarding “AAGCAAAACCCTAGACTCCTCCTTAGTCCTCAGTCCTCATCGGAGTCACCTAGTGCAG”, the binding signal was 8040 fluorescence intensity (a.u.).

Regarding “ACCACCGTTATATCAAGAACTACTCTCTTCCGCATTTAAGCGGAGTCACCTAGTGCAG”, the binding signal was 8160 fluorescence intensity (a.u.).

Turning to “GCGGGCCCCACACCCTCGTACTTCGCTTGCTGTAAACTGACGGAGTCACCTAGTGCAG”, the binding signal was 10100 fluorescence intensity (a.u.).

As to “TCAAACATATTTTAAAAAGTCAACGGTGTCAAACATTTAGCGGAGTCACCTAGTGCAG”, the binding signal was 9250 fluorescence intensity (a.u.).

For the sequence “TTGATTCAAACTCGTCCCACCAATCTTTCCCATTGATTCGCGGAGTCACCTAGTGCAG”, the binding signal was 9180 fluorescence intensity (a.u.).

With “TCACACAGATAGCCACGCCGCCGCCGCCGCCTCCGCCTGACGGAGTCACCTAGTGCAG”, the binding signal is 8880 fluorescence intensity (a.u.).

Take “AAGTGATATATCACCTATTGATTTATGTATCAACTTTTTTCGGAGTCACCTAGTGCAG”: the binding signal was 8600 fluorescence intensity (a.u.).

As for “ATGTCTGTATCTGTTATTGTTTCTATTGTGTCTGATCCAACGGAGTCACCTAGTGCAG”, the binding signal was 8980 fluorescence intensity (a.u.).

In the case of “GCCCCACCATATCCTTAAGAGCCCATACAGGATCGTTTCTCGGAGTCACCTAGTGCAG”, the binding signal is 8340 fluorescence intensity (a.u.).

“AGTCGTCGTCTCGCCGCATTATTATTTTTTTTCTTCGTCTCGGAGTCACCTAGTGCAG”: the binding signal is 8400 fluorescence intensity (a.u.).

As for “AGGGTTAGGGTTTTTCTACTTTTATTTTTTTGTGTTTTTTCGGAGTCACCTAGTGCAG”, the binding signal is 15800 fluorescence intensity (a.u.).

As for “GGTGGCGTGCAGGGTGGAGCGGGAGGGCGGCGGCGGGTGGCGGAGTCACCTAGTGCAG”, the binding signal is 17300 fluorescence intensity (a.u.).

Regarding “ATATATGGTTTCTGATTTATTAACATTGTATTCTAATGTTCGGAGTCACCTAGTGCAG”, the binding signal was 8740 fluorescence intensity (a.u.).

As to “CCGCTTGATTTATGATTTATTGATGGCATCGCGTATACACCGGAGTCACCTAGTGCAG”, the binding signal is 8120 fluorescence intensity (a.u.).

As for “GTGTTTAGGCACTGTAGTCATGCCCGTCCAATCCTGCAGGCGGAGTCACCTAGTGCAG”, the binding signal is 8480 fluorescence intensity (a.u.).

Take “ATTACACCAGCCATTACACCAGCTGCGGCCGGCTGCTTTTCGGAGTCACCTAGTGCAG”: the binding signal is 9500 fluorescence intensity (a.u.).

As for “GCTTCCTTGTCCGATTTGGTGGTTGATTCGTGTTTTTGCTCGGAGTCACCTAGTGCAG”, the binding signal is 9300 fluorescence intensity (a.u.).

In the case of “TCTTGTATTTTTGACTTTTTGTCTCTCGAGAGGACATCCCCGGAGTCACCTAGTGCAG”, the binding signal was 10500 fluorescence intensity (a.u.).

As to “TAACAATTTTTTAAAATAACTTTTCTATCCACTTTTTTTACGGAGTCACCTAGTGCAG”, the binding signal is 9110 fluorescence intensity (a.u.).

In the case of “TATTTAGTTTTTGGTTGTGTGTGTGATTTGTTCTTCATTCCGGAGTCACCTAGTGCAG”, the binding signal was 14000 fluorescence intensity (a.u.).

For the sequence “TACTTTTCTTCTTCCGTAAATTCATACCACCTTACATTTTCGGAGTCACCTAGTGCAG”, the binding signal was 8900 fluorescence intensity (a.u.).

On to “AACTTCCTTTCACTCATCGAACGGCACCCAAACATCTTTCCGGAGTCACCTAGTGCAG”, for which the binding signal is 9350 fluorescence intensity (a.u.).

Regarding “TATGCCACCCCATGCCCGCCTCTTCTCGCCACCCACAACCCGGAGTCACCTAGTGCAG”, the binding signal is 10600 fluorescence intensity (a.u.).

As to “GCCTAGGCGCCGTTGTTTCGGACTAATTTTTTCTTCTCAACGGAGTCACCTAGTGCAG”, the binding signal is 9390 fluorescence intensity (a.u.).

Take “CACTGCACACGCCACTACTCTTTTTCCTTGTTGTGGCTCACGGAGTCACCTAGTGCAG”: the binding signal is 10700 fluorescence intensity (a.u.).

For the sequence “ATGTCCACGTCGAACCCCACCGACCTCGCGAGCCGCGCCACGGAGTCACCTAGTGCAG”, the binding signal was 9020 fluorescence intensity (a.u.).

In the case of “TTGTAGTTTCTTTGTCAGGTTTTTCCTGTTTCTGTGGCTACGGAGTCACCTAGTGCAG”, the binding signal was 10200 fluorescence intensity (a.u.).

“TTCTTCAGCTTACTGGTTGTGTAGCTTCTTCTGGCTTTTCCGGAGTCACCTAGTGCAG”: the binding signal is 12000 fluorescence intensity (a.u.).

For “GATCTTTATCCCGTTTAAGAACTGTCTTTTCATCACTTCACGGAGTCACCTAGTGCAG”, the binding signal is 9100 fluorescence intensity (a.u.).

Take “TAGACCTAAATAAGTCATTGCTATTTCTCTTGCTTCCATACGGAGTCACCTAGTGCAG”: the binding signal was 8790 fluorescence intensity (a.u.).

For the origin of these results see PMC7819943, “Rice protein-binding microarrays: a tool to detect cis-acting elements near promoter regions in rice”.
